Reference: doi:10.1101/487322
Results are given in words; binding and its absence hold for the method and conditions named. Some entries that bind do so weakly or less than the wild type.

Target: Turnip crinkle virus coat protein (P38) (Turnip crinkle virus) (UniProt P06663)
Experiment: native gel or EMSA

B1: Turnip crinkle virus coat protein (P38) (protein, UniProt P06663 1-351)
chain: MENDPRVRKFASDGAQWAIKWQKKGWSTLTSRQKQTARAAMGIKLSPVAQPVQKVTRLSAPVALAYREVSTQPRVSTARDGITRSGSELITTLKKNTDTEPKYTTAVLNPSEPGTFNQLIKEAAQYEKYRFTSLRFRYSPMSPSTTGGKVALAFDRDAAKPPPNDLASLYNIEGCVSSVPWTGFILTVPTDSTDRFVADGISDPKLVDFGKLIMATYGQGANDAAQLGEVRVEYTVQLKNRTGSTSDAQIGDFAGVKDGPRLVSWSKTKGTAGWEHDCHFLGTGNFSLTLFYEKAPVSGLENADASDFSVLGEAAAGSVQWAGVKVAERGQGVKMVTTEEQPKGKWQALRI
  binding: binds
